The text below walks through data of patent US20050112168A1.

Amino acid sequences for entries named in this document (tags omitted). A change or cut given only in a name is not applied to a line headed by its entry. Residues count along the entry.
UniProt P09889, residues 22-340: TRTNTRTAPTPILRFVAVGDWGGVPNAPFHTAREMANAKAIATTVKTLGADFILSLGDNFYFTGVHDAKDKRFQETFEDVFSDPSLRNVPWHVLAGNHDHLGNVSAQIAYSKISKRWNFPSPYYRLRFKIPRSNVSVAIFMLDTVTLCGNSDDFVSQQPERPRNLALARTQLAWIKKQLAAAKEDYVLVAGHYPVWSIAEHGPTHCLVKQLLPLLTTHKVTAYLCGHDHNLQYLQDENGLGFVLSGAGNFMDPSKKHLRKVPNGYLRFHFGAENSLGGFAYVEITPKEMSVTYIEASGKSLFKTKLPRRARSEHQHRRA
UniProt Q13347: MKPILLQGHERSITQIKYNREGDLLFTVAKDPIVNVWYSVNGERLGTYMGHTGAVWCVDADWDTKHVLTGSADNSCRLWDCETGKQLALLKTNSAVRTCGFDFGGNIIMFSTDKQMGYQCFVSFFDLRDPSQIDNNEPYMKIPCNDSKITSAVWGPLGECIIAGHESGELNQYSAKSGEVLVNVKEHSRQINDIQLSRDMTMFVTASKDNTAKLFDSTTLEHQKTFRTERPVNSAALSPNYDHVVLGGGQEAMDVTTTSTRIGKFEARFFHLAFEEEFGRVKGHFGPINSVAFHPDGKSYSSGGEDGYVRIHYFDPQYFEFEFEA
UniProt B0BNA7: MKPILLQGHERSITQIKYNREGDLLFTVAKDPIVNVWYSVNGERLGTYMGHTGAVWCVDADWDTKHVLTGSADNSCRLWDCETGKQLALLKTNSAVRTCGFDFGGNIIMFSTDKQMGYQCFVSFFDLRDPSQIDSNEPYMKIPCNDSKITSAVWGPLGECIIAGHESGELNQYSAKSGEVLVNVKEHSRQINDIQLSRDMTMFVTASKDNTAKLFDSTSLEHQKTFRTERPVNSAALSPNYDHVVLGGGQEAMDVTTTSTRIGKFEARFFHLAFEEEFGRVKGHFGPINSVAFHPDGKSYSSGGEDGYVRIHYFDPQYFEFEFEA
UniProt P13686: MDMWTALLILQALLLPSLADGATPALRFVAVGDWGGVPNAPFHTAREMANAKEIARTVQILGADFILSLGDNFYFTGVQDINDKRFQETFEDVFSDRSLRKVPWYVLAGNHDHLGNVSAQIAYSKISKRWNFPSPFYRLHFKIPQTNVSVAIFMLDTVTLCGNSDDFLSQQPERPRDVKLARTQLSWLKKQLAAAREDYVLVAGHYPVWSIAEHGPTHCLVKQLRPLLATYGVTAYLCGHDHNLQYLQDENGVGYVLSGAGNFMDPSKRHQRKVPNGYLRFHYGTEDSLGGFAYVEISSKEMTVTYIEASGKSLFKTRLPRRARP

No constants are given. Whether binding was seen depends on the method and setting. For some assays here: Binding seen in cells or lysates may run through a third protein. Some binding calls cover weakened binding; strength is not graded here.

Assay [1] deals with purified type V tartrate resistant acid phosphatase (TRAP), also known as uteroferrin (UniProt P09889). As to the kind of experiment: phage ELISA on immobilised TRAP, HRP anti-T7 antibody (FIG. 15A).
For assay [2] the target is unchanged. The assay can be described thus: phage ELISA on immobilised TRAP, HRP anti-T7 antibody (FIG. 15a). In general terms: In an ELISA, binding on a coated surface is turned into a signal by an enzyme label.
For assay [3] the target is unchanged. As to the kind of experiment: T7 osteoblast cDNA phage display, bio-panning on immobilised TRAP.
Assay [4] has the same target. The assay can be described thus: GST pull-down with glutathione beads, Far-Western detection of TRAP (FIG. 15B).
For assay [5] the target is unchanged. As to the kind of experiment: GST pull-down with glutathione beads, Far-Western detection of TRAP (FIG. 15b).
The target is the same in assay [6]. As to the kind of experiment: osteoblast cDNA phage display, three rounds of bio-panning on TRAP.
Assay [7] addresses 'HIS' tagged TRIP-1 (Homo sapiens (Human)) (UniProt Q13347). The assay can be described thus: GST-TRAP pull-down from 293T cell lysate (FIG. 19).
Assay [8] has the same target. As to the kind of experiment: GST-TRAP added to transfected cells, glutathione bead pull-down from lysate, Western with anti-HIS.

As for “TRIP-1-expressing T7 phage (rat osteoblast cDNA library, Example 3) (from UniProt B0BNA7 1-325)”, the binding result in assay [1], in assay [2] and in assay [3] was “binds” each time.
For the substance “GST-TRIP fusion protein (human TRIP-1 fused to glutathione-S transferase) (from UniProt Q13347 1-325)”, the binding entry in assay [4] and in assay [5] was “binds” throughout.
As to “TRIP clone of the rat osteoblast cDNA phage display library in M13 phage (Example 1) (from UniProt B0BNA7 1-325)”, the binding result in assay [6] is “binds”.
As for “GST-TRAP fusion protein (from UniProt P13686 22-325)”, the binding result in assay [7] and in assay [8] was “binds” in each case.
